Test results from US20050100940A1, “Novel FDRG protein and nucleic acid molecules and uses therefor” (Millennium Pharmaceuticals, Inc., priority 1998, published 2005).
At least one structure is not confirmed: it was looked up by name or label, or the drawing left a doubt.

Tested on: Male Zucker diabetic fatty (fa/fa) rats
Assay: Chronic troglitazone treatment of Zucker diabetic fatty rats, Northern blots of white adipose tissue
Type: in vivo, rat
Protocol: This experiment describes analysis of FDRG mRNA levels in rats following chronic troglitazone treatment to determine if FDRG expresion is regulated by PPARγ in vivo. Male Zucker diabetic fatty (fa/fa) rats were treated with 6 mg/kg/day (1.2% w/v) troglitazone or placebo admixed with food starting at 6 weeks of age and continuing until 26 weeks. […] Northern blots were performed on RNA isolated from white adipose tissue of treated and untreated animals, four from each group, after 4 and 20 weeks of treatment. […] This was true even when normalized to aP2, a fat cell marker. Glut4 mRNA was also found to be elevated, in agreement with published reports by other groups. Ribosomal-associated 36B4 served as a loading control.

Cc1c(C)c2c(c(C)c1O)CCC(C)(COc1ccc(CC3SC(=O)NC3=O)cc1)O2 (centres unmarked) [troglitazone]
Glycemic state of treated animals (6 mg/kg/day in food from 6 to 26 weeks of age): remain normoglycemic | Glut4 mRNA (white adipose tissue, treated versus controls): elevated
